Paper PMC4203352

Protein sequences, listed by entry. Tags and fused reporters are not part of them. Residues count along the entry.
UniProt Q8NBS9, residues 33-432: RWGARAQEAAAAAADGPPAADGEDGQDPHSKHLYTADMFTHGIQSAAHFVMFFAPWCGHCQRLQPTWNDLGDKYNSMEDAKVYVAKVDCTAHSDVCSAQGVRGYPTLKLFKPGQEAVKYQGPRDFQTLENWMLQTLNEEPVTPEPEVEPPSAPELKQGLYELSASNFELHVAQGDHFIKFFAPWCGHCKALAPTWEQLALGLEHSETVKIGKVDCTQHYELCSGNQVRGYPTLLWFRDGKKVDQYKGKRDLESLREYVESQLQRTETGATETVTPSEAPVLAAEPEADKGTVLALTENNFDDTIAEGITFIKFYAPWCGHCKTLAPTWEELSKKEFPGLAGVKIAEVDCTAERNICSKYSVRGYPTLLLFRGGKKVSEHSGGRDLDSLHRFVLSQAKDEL

B1: Txn (thioredoxin), endogenous, P10599 1-105 (protein)
chain: MVKQIESKTAFQEALDAAGDKLVVVDFSATWCGPCKMIKPFFHSLSEKYSNVIFLEVDVDDCQDVASECEVKCMPTFQFFKKGQKVGEFSGANKEKLEATINELV
B2: Txn2, endogenous (protein, UniProt Q99757 60-166)
chain: TTFNIQDGPDFQDRVVNSETPVVVDFHAQWCGPCKILGPRLEKMVAKQHGKVVMAKVDIDDHTDLAIEYEVSAVPTVLAMKNGDVVDKFVGIKDEDQLEAFLKKLIG
B3: Pdia4, endogenous (enzyme, UniProt P13667 21-645)
chain: VAGAEGPDEDSSNRENAIEDEEEEEEEDDDEEEDDLEVKEENGVLVLNDANFDNFVADKDTVLLEFYAPWCGHCKQFAPEYEKIANILKDKDPPIPVAKIDATSASVLASRFDVSGYPTIKILKKGQAVDYEGSRTQEEIVAKVREVSQPDWTPPPEVTLVLTKENFDEVVNDADIILVEFYAPWCGHCKKLAPEYEKAAKELSKRSPPIPLAKVDATAETDLAKRFDVSGYPTLKIFRKGRPYDYNGPREKYGIVDYMIEQSGPPSKEILTLKQVQEFLKDGDDVIIIGVFKGESDPAYQQYQDAANNLREDYKFHHTFSTEIAKFLKVSQGQLVVMQPEKFQSKYEPRSHMMDVQGSTQDSAIKDFVLKYALPLVGHRKVSNDAKRYTRRPLVVVYYSVDFSFDYRAATQFWRSKVLEVAKDFPEYTFAIADEEDYAGEVKDLGLSESGEDVNAAILDESGKKFAMEPEEFDSDTLREFVTAFKKGKLKPVIKSQPVPKNNKGPVKVVVGKTFDSIVMDPKKDVLIEFYAPWCGHCKQLEPVYNSLAKKYKGQKGLVIAKMDATANDVPSDRYKVEGFPTIYFAPSGDKKNPVKFEGGDRDLEHLSKFIEEHATKLSRTKEEL
B4: endogenous PDIA6 (enzyme, UniProt Q15084 20-440)
chain: LYSSSDDVIELTPSNFNREVIQSDSLWLVEFYAPWCGHCQRLTPEWKKAATALKDVVKVGAVDADKHHSLGGQYGVQGFPTIKIFGSNKNRPEDYQGGRTGEAIVDAALSALRQLVKDRLGGRSGGYSSGKQGRSDSSSKKDVIELTDDSFDKNVLDSEDVWMVEFYAPWCGHCKNLEPEWAAAASEVKEQTKGKVKLAAVDATVNQVLASRYGIRGFPTIKIFQKGESPVDYDGGRTRSDIVSRALDLFSDNAPPPELLEIINEDIAKRTCEEHQLCVVAVLPHILDTGAAGRNSYLEVLLKLADKYKKKMWGWLWTEAGAQSELETALGIGGFGYPAMAAINARKMKFALLKGSFSEQGINEFLRELSFGRGSTAPVGGGAFPTIVEREPWDGRDGELPVEDDIDLSDVELDDLGKDEL

How the values were obtained:
[1] = target: T1, Txnip, N-terminal tandem Strep/FLAG tag, stably expressed in HEK293F (UniProt Q9H3M7); assay: affinity purification with mass spectrometry; HEK293F cells stably transduced with Strep/FLAG-Txnip or empty vector, suspension culture; Streptactin resin columns; eluates by SDS-PAGE and mass spectrometry
T1 sequence: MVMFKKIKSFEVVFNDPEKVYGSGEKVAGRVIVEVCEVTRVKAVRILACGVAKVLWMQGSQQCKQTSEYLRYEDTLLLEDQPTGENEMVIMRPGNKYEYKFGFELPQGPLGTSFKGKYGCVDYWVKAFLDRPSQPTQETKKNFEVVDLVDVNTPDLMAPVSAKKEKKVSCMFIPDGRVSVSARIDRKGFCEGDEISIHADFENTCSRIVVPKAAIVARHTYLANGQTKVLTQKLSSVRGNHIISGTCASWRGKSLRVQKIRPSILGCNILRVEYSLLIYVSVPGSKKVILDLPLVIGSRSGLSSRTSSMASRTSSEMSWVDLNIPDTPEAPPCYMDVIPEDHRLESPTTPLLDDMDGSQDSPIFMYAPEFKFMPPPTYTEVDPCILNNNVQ

[2] = target: T2, Txnip, N-terminal tandem Strep/FLAG tag, stably expressed in HEK293F, Q9H3M7; assay: as above; details: remark: other sources report otherwise
T2 chain: T1 sequence

Row | binding [1] | binding [2] | Molecule
1 | binds | – | Pdia15, endogenous (from UniProt Q8NBS9 33-432) (enzyme)
2 | – | binds | B1
3 | binds | – | B2
4 | binds | – | B3
5 | binds | – | B4

No constants are given. Whether binding was seen depends on the method and setting. Binding seen in cells or lysates may run through a third protein. These calls come from enrichment with a bait or labelling near it, and not all partners need be listed. Tags and fused reporters may be left off the sequences shown.
